The record followed here is publication PMC5955423.

Sequences of proteins named here, by UniProt entry; tags and fusion partners are left off.
UniProt Q13042: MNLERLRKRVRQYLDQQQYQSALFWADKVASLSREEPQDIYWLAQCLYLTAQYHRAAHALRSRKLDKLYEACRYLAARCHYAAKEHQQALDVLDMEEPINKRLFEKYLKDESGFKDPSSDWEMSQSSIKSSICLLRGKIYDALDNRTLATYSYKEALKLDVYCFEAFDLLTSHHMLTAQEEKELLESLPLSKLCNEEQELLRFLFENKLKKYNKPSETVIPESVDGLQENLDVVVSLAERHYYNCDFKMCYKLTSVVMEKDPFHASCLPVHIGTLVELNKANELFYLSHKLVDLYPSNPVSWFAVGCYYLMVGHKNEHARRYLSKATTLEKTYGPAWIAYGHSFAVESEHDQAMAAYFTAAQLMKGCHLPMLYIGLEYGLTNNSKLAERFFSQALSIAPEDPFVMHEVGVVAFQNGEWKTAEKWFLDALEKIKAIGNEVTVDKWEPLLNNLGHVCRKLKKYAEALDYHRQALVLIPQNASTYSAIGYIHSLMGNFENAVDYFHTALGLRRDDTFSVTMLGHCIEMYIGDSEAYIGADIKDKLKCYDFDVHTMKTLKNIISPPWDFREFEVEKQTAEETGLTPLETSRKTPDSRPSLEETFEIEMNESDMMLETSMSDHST

Results are given in words; binding and its absence hold for the method and conditions named. In cells and extracts the contact can be indirect. Some results given as binding are weak or reduced against the parent protein; the word gives no strength.

This experiment deals with CDC16 (UniProt Q13042). The experiment is described as follows: co-IP; extracts of transfected A549 cells, without SPC treatment; lysates incubated with anti-CDC16 or anti-YDJC antibody overnight at 4°C, protein A/G magnetic beads 1 h at room temperature, eluates analysed by Western blot.

B1: YdjC chitooligosaccharide deacetylase homolog (YDJC), wild type (enzyme, UniProt A8MPS7 1-323)
chain: MSRPRMRLVVTADDFGYCPRRDEGIVEAFLAGAVTSVSLLVNGAATESAAELARRHSIPTGLHANLSEGRPVGPARRGASSLLGPEGFFLGKMGFREAVAAGDVDLPQVREELEAQLSCFRELLGRAPTHADGHQHVHVLPGVCQVFAEALQAYGVRFTRLPLERGVGGCTWLEAPARAFACAVERDARAAVGPFSRHGLRWTDAFVGLSTCGRHMSAHRVSGALARVLEGTLAGHTLTAELMAHPGYPSVPPTGGCGEGPDAFSCSWERLHELRVLTAPTLRAQLAQDGVQLCALDDLDSKRPGEEVPCEPTLEPFLEPSLL
On to B1, for which the binding entry is on record as “binds”.

B2: YDJC D13A (deacetylase dominant negative mutant) (enzyme, UniProt A8MPS7 1-323)
chain: MSRPRMRLVVTAADFGYCPRRDEGIVEAFLAGAVTSVSLLVNGAATESAAELARRHSIPTGLHANLSEGRPVGPARRGASSLLGPEGFFLGKMGFREAVAAGDVDLPQVREELEAQLSCFRELLGRAPTHADGHQHVHVLPGVCQVFAEALQAYGVRFTRLPLERGVGGCTWLEAPARAFACAVERDARAAVGPFSRHGLRWTDAFVGLSTCGRHMSAHRVSGALARVLEGTLAGHTLTAELMAHPGYPSVPPTGGCGEGPDAFSCSWERLHELRVLTAPTLRAQLAQDGVQLCALDDLDSKRPGEEVPCEPTLEPFLEPSLL
Take B2: the binding entry is given as “binds”.
